# Results as given in PubChem BioAssay AID2685 (National Center for Advancing Translational Sciences (NCATS), 2010).
# This is one part of the list. The main result of the screen is listed elsewhere. These columns were measured beside it and carry no call. The list favours compounds with an active or inconclusive main result. Words in brackets tell the shape of the fitted curve; partial curves, single points and poor fits give uncertain potencies.
# Experiment: qHTS Assay for Lipid Storage Modulators in Drosophila S3 Cells;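 for cell number change: cells counted by Cell Tracker Red CMTPX staining in the red channel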
# Details: BODIPY lipid droplet fluorescence, 18-24 h; for cell number change: measured here: cell count max response, cells fed with added oleic acid
# Summary of the method: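 Drosophila S3 cells got compounds at several concentrations plus oleic acid (400 uM solution). Laser-scanning cytometry with 488 nm excitation read lipid droplets at 500-530 nm and cells at 575-640 nm. Percent activity was relative to 20 uM Triacsin C.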
# [1] = measured here: cell number channel AC50, cells fed with added oleic acid
# [2] = measured here: lipid fluorescence (Fed channel) AC50, cells fed with added oleic acid
smiles,measurement,setting,value
COCCCNC(=S)Nc1cccc(S(=O)(=O)NC2=NCCC2)c1,AC50,[1],"0.461 µM [falling, single point]"
CCOc1ccc(CN(C)CC(O)COC(c2ccc(OC)cc2)c2ccc(OC)cc2)cc1 (stereo not drawn),cell number change,,38.2%
same,AC50,[1],"29.1 µM [rising, single point]"
same,AC50,[2],"4.47 µM [falling, full curve, poor fit]"
CCNc1oc(-c2cccc3ccccc23)nc1C#N,cell number change,,-22%
same,AC50,[2],"0.82 µM [falling, single point]"
NC(=S)c1cc2cc(Cl)ccc2oc1=O,cell number change,,10.9%
same,AC50,[2],"0.651 µM [falling, single point]"
COc1ccc(NS(=O)(=O)c2csc(C(=O)N3CCCC3)c2)cc1,cell number change,,0.895%
CC(C)NC(=O)c1cccc(NC(=O)CC2SC(N3CCCCC3)=NC2=O)c1 (stereo not drawn),cell number change,,-19.3%
O=C(c1ccc(F)cc1)C1CCN(C(=S)Nc2ccc(F)cc2)CC1,cell number change,,-8.51%
same,AC50,[2],"16.4 µM [falling, single point]"
Cc1cccc(C(C)n2nnc3ccccc32)c1O (stereo not drawn),cell number change,,11.8%
same,AC50,[1],"0.291 µM [falling, single point]"
same,AC50,[2],"32.6 µM [rising, partial curve, poor fit]"
O=C(NC(=S)N1CCN(Cc2ccccc2)CC1)c1ccccc1,cell number change,,36.9%
same,AC50,[1],"16.4 µM [rising, single point]"
same,AC50,[2],"29.1 µM [rising, single point]"
CCOc1ccc(S(=O)(=O)N(C)CC(=O)N2CCCC2)cc1,cell number change,,-16.6%
same,AC50,[2],"0.0731 µM [falling, single point]"
CC(C)CCCNc1nc(N2CCOCC2)nc(N2CCOCC2)n1,cell number change,,18.7%
same,AC50,[2],"5.8 µM [rising, full curve, poor fit]"
CC1=C(C(=O)O)N2C(=O)C(NC(=O)c3nn(C)cc3[N+](=O)[O-])C2SC1 (stereo not drawn),cell number change,,-36.4%
same,AC50,[1],"0.146 µM [falling, full curve, poor fit]"
Cc1ccc(NS(=O)(=O)c2cccs2)c(C)c1,cell number change,,21.8%
COc1ccc(/C=C/C(=O)NC(=S)NNC(=O)c2ccco2)cc1OC,cell number change,,-11.9%
same,AC50,[2],"6.51 µM [falling, single point]"
CC(COc1cccc2ccccc12)CN1CCN(C)CC1 (stereo not drawn),cell number change,,0.374%
COc1ccc(C[C@H]2CN3C(=NC[C@@H]3Cc3ccc(O)cc3)N2C[C@H](C)NC(=O)c2ccc(C)c(Br)c2)cc1,cell number change,,-32.6%
same,AC50,[1],"29.1 µM [falling, single point]"
same,AC50,[2],"3.26 µM [falling, partial curve, poor fit]"
CCc1ccc(N2CC(C(=O)N3CCCC3)CC2=O)cc1 (stereo not drawn),cell number change,,9.21%
same,AC50,[2],"5.62 µM [rising, single point]"
CCCCn1c(N)c(N(CC)C(=O)C(c2ccccc2)c2ccccc2)c(=O)[nH]c1=O,AC50,[1],"0.082 µM [rising, partial curve, poor fit]"
COc1ccc(OC)c(S(=O)(=O)N2CCC(C(=O)N3CCCC3)CC2)c1,cell number change,,-5.26%
COc1ccc(NC(=O)Cn2c3ccccc3c3nc4n(c(=O)c32)CCS4)cc1OC,cell number change,,177%
same,AC50,[1],"29.1 µM [rising, single point]"
same,AC50,[2],"29.1 µM [falling, single point]"
c1cn2cc(CSC3CCCCC3)nc2s1,cell number change,,-13.5%
same,AC50,[2],"29.1 µM [rising, single point]"
CCc1cc2c(Nc3ccc(O)cc3)nc(C)nc2s1,cell number change,,-33.5%
same,AC50,[1],"20.6 µM [falling, single point]"
Cc1cc(C)n2c(SCc3ccc(C#N)cc3)nnc2n1,cell number change,,11.6%
Cc1oc2c(c1C(=O)NCc1cccnc1)C(=O)c1ccccc1C2=O,cell number change,,-16.2%
same,AC50,[2],"5.8 µM [falling, full curve]"
O=C(Nc1ccccc1)N(C1=NCCC1)c1ccc(OC(F)F)cc1,cell number change,,19.5%
same,AC50,[2],"16.4 µM [rising, single point]"
Cc1ccc(C)c(C(=O)CSc2n[nH]c(C)n2)c1,cell number change,,-6.42%
same,AC50,[2],"29.1 µM [rising, single point]"
COC(=O)c1ccc(CNC(=O)c2ccc3c(c2)OCCO3)cc1,cell number change,,-0.806%
O=C(COC(=O)C12CC3CC(CC(C3)C1)C2)NCc1ccco1,cell number change,,-44.2%
same,AC50,[1],"0.411 µM [falling, full curve]"
same,AC50,[2],"29.1 µM [falling, single point]"
O=c1c2c(nc3c(-c4cccc(Br)c4)c[nH]n13)CCCC2,AC50,[1],"0.82 µM [rising, full curve, poor fit]"
COc1cccc(OC)c1C(=O)NC(=S)Nc1ccc2c(c1)OCCO2,cell number change,,-1.91%
COc1ccc(N(C(=O)CNC(=O)c2ccco2)C(C(=O)NCC2CCCO2)c2ccccc2)cc1 (stereo not drawn),cell number change,,20%
O=C(COc1cccnc1[N+](=O)[O-])Nc1cccc2ccccc12,cell number change,,2.87%
same,AC50,[2],"6.51 µM [rising, single point]"
COC(=O)[C@H](Cc1ccccc1)NC(=O)Nc1ccc(S(N)(=O)=O)cc1,AC50,[1],"0.0058 µM [falling, full curve, poor fit]"
same,AC50,[2],"3.66 µM [falling, full curve]"
CC1(C)CC(=NO)CC(C)(C)N1,cell number change,,1.27%
same,AC50,[2],"0.651 µM [rising, full curve, poor fit]"
CC1CCN(C(c2ccccc2)c2nnnn2C(C)(C)C)CC1 (stereo not drawn),AC50,[2],"18.4 µM [falling, single point]"
Fc1ccc(Oc2nnnn2-c2ccccc2)cc1,cell number change,,154%
Cc1ccc(CC(=O)O/N=C(\N)c2ccccn2)cc1,cell number change,,36.8%
same,AC50,[1],"25.9 µM [rising, single point]"
Cc1ccc(S(=O)(=O)NCC(c2ccccc2)N2CCN(c3ccc(F)cc3)CC2)cc1 (stereo not drawn),cell number change,,-4.59%
same,AC50,[2],"3.66 µM [falling, full curve, poor fit]"
O=C(c1cccc(S(=O)(=O)N2CCOCC2)c1)N(Cc1ccco1)Cc1cccs1,cell number change,,-5.78%
same,AC50,[2],"1.84 µM [rising, partial curve, poor fit]"
Cc1nc2ccccn2c1C(=O)NNS(=O)(=O)c1ccc(Cl)cc1,cell number change,,-30.9%
same,AC50,[1],"29.1 µM [falling, single point]"
same,AC50,[2],"2.06 µM [rising, partial curve, poor fit]"
COc1ccc(C(C)=O)cc1CSc1nc2cc(Cl)ccc2o1,cell number change,,62.8%
same,AC50,[1],"2.31 µM [rising, full curve]"
O=C(Nc1nc2ccccc2[nH]1)c1cccc(Cl)c1,cell number change,,-6.35%
CC1=NN(c2ccc(C(=O)OC(C)C)cc2)C(=O)/C1=C\C=C\c1ccco1,cell number change,,-68.1%
same,AC50,[1],"23.1 µM [falling, partial curve]"
same,AC50,[2],"7.31 µM [falling, partial curve]"
Cn1nnnc1Sc1ncnc2scc(-c3ccccc3C(F)(F)F)c12,cell number change,,-19.4%
same,AC50,[2],"6.51 µM [rising, partial curve, poor fit]"
Cc1ccc(Sc2cc(C(=O)NCCN(C)C)c3ccccc3n2)cc1,cell number change,,15.6%
same,AC50,[2],"10.3 µM [rising, partial curve]"
Cc1ccc(NC(=O)Cn2nc(C)c(S(=O)(=O)N(C)C)c2C)cc1,cell number change,,21.5%
same,AC50,[1],"6.51 µM [rising, partial curve, poor fit]"
COc1ccc(S(=O)(=O)N2CCC(C(=O)NCCC(=O)NCc3ccccc3OC)CC2)cc1,cell number change,,-17.1%
same,AC50,[2],"14.6 µM [rising, single point]"
O=C(CN1CCC(NC(=O)c2ccccc2Cl)CC1)NCc1ccccc1,cell number change,,-6.58%
CCOC(=O)C1CCN(C(=O)c2cc3c(C)cc(C)cc3[nH]2)CC1,cell number change,,8.62%
same,AC50,[2],"5.8 µM [rising, single point]"
Oc1ccc(Cl)cc1CNc1cccc2cccnc12,cell number change,,-47.5%
same,AC50,[1],"14.6 µM [falling, single point]"
same,AC50,[2],"25.9 µM [rising, single point]"
CC(=O)N1CCN(CC(O)COc2ccc(S(=O)(=O)N3CCOCC3)cc2)CC1 (stereo not drawn),cell number change,,-8.8%
same,AC50,[2],"0.0206 µM [falling, full curve, poor fit]"
CCOc1ccc2nc(SC3CC(=O)N(c4cccc(OC)c4)C3=O)sc2c1 (stereo not drawn),cell number change,,13.8%
same,AC50,[1],"0.651 µM [falling, single point]"
same,AC50,[2],"1.03 µM [falling, single point]"
COC(=O)c1c(-c2ccccc2)csc1NC(=O)C1CC=CCC1C(=O)O (stereo not drawn),cell number change,,2.26%
same,AC50,[1],"0.00461 µM [falling, full curve, poor fit]"
COc1ccc(C2=NOC3(CC(=O)N(c4ccc(C)cc4)C3=O)C2)c(OC)c1 (stereo not drawn),cell number change,,-0.261%
Nc1nnc(CSCc2ccc(F)cc2)s1,AC50,[2],"0.13 µM [falling, full curve, poor fit]"
NC(=O)C1CCCN(C(=O)c2ccc3c(c2)NC(=O)CS3)C1 (stereo not drawn),cell number change,,24.1%
same,AC50,[2],"16.4 µM [rising, partial curve]"
O=C(COC(=O)c1ccccc1NC(=O)c1ccccc1)c1cccc([N+](=O)[O-])c1,cell number change,,34%
same,AC50,[1],"29.1 µM [rising, single point]"
O=C(OCCc1cc2ccccc2c(=O)o1)N1CCOCC1,cell number change,,-18.5%
same,AC50,[1],"0.651 µM [rising, single point]"
same,AC50,[2],"0.058 µM [rising, partial curve, poor fit]"
N#CCN1C(=O)C(=O)N(Cc2cccc(C(F)(F)F)c2)C1=O,cell number change,,22.4%
O=C(CCc1nnc2ccc(N3CCCCC3)nn12)NCc1ccco1,cell number change,,0.943%
same,AC50,[2],"29.1 µM [rising, single point]"
COc1cccc(CNC(=O)Cn2cc3c(n2)CCCC3)c1,cell number change,,10.7%
same,AC50,[2],"6.51 µM [falling, partial curve, poor fit]"
CC(OC(=O)CCN1C(=O)C2CC=CCC2C1=O)C(=O)c1ccc(F)cc1 (stereo not drawn),cell number change,,-4.45%
same,AC50,[2],"29.1 µM [rising, single point]"
Cc1c(NC(=O)COc2ncnc3ccccc23)c(=O)n(-c2ccccc2)n1C,cell number change,,7.46%
same,AC50,[1],"0.146 µM [falling, full curve, poor fit]"

# 4 successive records out of the list so far, for reference:
smiles,measurement,setting,value
CCNc1oc(-c2cccc3ccccc23)nc1C#N,AC50,[2],"0.82 µM [falling, single point]"
NC(=S)c1cc2cc(Cl)ccc2oc1=O,cell number change,,10.9%
same,AC50,[2],"0.651 µM [falling, single point]"
COc1ccc(NS(=O)(=O)c2csc(C(=O)N3CCCC3)c2)cc1,cell number change,,0.895%

# A different layout for some results above.
smiles	measurement	setting	value
O=C(COC(=O)C12CC3CC(CC(C3)C1)C2)NCc1ccco1	cell number change		-44.2%
same	AC50	[1]	0.411 µM [falling, full curve]
same	AC50	[2]	29.1 µM [falling, single point]
O=c1c2c(nc3c(-c4cccc(Br)c4)c[nH]n13)CCCC2	AC50	[1]	0.82 µM [rising, full curve, poor fit]
COc1cccc(OC)c1C(=O)NC(=S)Nc1ccc2c(c1)OCCO2	cell number change		-1.91%
